# Measurements from publication doi:10.1101/2022.07.18.500530.
# Sequences of proteins named here, by UniProt entry; tags and fusion partners are left off.
# UniProt F4K5J1: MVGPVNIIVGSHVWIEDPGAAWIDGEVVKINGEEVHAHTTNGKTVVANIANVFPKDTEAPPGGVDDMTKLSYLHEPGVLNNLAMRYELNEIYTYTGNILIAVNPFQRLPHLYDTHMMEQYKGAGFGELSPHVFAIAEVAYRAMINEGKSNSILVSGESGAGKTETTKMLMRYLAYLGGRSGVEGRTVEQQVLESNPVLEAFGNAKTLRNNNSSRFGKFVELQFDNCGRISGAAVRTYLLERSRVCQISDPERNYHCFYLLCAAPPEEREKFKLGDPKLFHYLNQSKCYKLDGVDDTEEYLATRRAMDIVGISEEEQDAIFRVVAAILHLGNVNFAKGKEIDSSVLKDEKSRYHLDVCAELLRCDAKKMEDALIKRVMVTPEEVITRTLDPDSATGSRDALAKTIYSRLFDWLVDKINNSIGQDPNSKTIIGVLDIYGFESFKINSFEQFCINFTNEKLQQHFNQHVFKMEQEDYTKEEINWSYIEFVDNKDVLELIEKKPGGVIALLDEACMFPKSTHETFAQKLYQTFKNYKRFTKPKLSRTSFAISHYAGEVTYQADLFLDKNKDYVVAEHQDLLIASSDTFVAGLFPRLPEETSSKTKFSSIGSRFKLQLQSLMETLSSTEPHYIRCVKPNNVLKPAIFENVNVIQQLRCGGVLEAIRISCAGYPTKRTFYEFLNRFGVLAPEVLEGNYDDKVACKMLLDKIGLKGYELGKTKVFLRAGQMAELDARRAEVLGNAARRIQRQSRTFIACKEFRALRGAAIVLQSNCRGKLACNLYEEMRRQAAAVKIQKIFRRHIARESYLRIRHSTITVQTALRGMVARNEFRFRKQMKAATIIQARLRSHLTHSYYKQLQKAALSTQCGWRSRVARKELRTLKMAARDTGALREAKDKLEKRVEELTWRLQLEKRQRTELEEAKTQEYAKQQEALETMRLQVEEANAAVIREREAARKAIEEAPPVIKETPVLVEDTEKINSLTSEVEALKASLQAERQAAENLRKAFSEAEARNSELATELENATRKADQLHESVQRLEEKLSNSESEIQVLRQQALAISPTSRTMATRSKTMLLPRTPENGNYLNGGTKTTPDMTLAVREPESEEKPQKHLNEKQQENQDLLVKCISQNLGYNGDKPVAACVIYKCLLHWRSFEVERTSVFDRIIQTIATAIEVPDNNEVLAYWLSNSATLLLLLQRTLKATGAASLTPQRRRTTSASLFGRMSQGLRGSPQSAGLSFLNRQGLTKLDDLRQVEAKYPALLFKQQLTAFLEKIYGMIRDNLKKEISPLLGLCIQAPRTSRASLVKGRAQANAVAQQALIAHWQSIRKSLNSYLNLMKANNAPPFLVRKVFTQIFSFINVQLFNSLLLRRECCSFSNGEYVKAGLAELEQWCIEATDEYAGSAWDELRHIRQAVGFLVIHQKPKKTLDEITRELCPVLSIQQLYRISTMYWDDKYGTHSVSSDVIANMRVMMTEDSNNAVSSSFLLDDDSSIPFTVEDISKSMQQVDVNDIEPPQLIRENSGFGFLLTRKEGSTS
# No constants are given. Whether binding was seen depends on the method and setting. For part of these data: Binding seen in cells or lysates may run through a third protein. Some results given as binding are weak or reduced against the parent protein; the word gives no strength. For part of these data: Sequences can lack the tags named with a protein.
# Tests used:
# [1] = target: T1, TWISTED DWARF1 (TWD1), purified protein (Arabidopsis) (UniProt Q9LDC0); assay: pull-down
# T1 sequence: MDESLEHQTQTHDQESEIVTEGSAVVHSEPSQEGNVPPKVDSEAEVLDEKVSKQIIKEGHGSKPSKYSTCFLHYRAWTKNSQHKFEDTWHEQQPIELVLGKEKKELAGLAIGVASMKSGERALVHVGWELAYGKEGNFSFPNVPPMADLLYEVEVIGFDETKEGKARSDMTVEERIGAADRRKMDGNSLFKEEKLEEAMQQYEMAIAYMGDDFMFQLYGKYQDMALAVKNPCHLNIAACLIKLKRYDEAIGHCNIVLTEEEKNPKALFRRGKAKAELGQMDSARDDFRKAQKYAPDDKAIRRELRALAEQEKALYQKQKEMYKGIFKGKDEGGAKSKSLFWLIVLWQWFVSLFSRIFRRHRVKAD
# [2] = target: T2, TWD1 fused to Renilla luciferase (TWD1-Rluc) (Arabidopsis) (UniProt Q9LDC0); assay: FRET or BRET
# T2 sequence: T1 sequence
binding [1],binding [2],Substance
no binding,–,Arabidopsis Actin2 (from UniProt Q96292 1-377)
no binding,–,Arabidopsis Actin7 (from UniProt P53492 1-377)
–,binds,Myosin XIK-YFP (from UniProt F4K5J1 1-1531)
